# Measurements as given in PMC5996148.
# Several values for one entry are separate records, joined by “and”; a condition that tells them apart may be missing. Equal entries are not always repeated. The list shows a part of the results. For some assays here: The source does not settle which construct or isoform was used.
# How the values were obtained:
# Experiment in all cases: protein microarray (ProtoArray v5.0), streptavidin-Alexa Fluor 647
# Conditions in all cases: 3'-biotin; 20 mM Tris (pH 7.5), 5 mM MgCl2, 100 mM KCl, 0.1% Tween-20, A/T-rich and random oligonucleotide blockers; temperature not stated; high values mean tight binding
# [1] = biological target: T1, CCDC115 (UniProt Q96NT0)
# T1 sequence: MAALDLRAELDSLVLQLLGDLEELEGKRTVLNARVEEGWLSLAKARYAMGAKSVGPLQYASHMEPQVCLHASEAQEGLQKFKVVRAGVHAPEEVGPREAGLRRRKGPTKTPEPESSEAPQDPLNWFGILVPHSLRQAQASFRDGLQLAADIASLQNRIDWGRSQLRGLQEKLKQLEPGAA
# [2] = tested on: CCDC32 (human)
# [3] = tested on: CCDC40 (human)
# [4] = tested on: CCDC82 (human)
# [5] = tested on: CCDC83 (human)
# [6] = tested on: CCL3 (human)
# [7] = tested on: CCL3L3 (human)
# [8] = tested on: CCL4 (human)
# [9] = biological target: T2, CCNF (UniProt P41002)
# T2 sequence: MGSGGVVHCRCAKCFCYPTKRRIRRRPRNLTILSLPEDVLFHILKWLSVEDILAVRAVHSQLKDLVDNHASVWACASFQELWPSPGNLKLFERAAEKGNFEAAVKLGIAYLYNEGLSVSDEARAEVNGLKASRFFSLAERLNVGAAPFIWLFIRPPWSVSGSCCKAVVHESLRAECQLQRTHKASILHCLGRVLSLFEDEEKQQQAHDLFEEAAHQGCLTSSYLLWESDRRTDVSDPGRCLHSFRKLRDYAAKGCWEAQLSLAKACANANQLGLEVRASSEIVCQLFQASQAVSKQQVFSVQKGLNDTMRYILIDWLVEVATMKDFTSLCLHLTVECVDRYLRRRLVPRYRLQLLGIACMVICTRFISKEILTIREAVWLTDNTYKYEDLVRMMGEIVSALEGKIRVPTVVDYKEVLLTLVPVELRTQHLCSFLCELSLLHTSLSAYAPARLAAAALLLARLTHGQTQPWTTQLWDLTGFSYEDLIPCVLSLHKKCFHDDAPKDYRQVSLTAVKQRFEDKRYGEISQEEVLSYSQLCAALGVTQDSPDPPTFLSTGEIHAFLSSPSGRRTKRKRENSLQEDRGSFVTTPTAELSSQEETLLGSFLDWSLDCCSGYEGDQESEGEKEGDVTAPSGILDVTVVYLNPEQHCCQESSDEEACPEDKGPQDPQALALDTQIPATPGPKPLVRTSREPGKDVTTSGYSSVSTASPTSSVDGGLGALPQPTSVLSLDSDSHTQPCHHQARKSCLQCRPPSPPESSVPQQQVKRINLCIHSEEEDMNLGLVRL
# [10] = tested on: CCT2 (human)
# [11] = tested on: CCT8 (human)
# [12] = biological target: T3, CD209 (UniProt Q9NNX6)
# T3 sequence: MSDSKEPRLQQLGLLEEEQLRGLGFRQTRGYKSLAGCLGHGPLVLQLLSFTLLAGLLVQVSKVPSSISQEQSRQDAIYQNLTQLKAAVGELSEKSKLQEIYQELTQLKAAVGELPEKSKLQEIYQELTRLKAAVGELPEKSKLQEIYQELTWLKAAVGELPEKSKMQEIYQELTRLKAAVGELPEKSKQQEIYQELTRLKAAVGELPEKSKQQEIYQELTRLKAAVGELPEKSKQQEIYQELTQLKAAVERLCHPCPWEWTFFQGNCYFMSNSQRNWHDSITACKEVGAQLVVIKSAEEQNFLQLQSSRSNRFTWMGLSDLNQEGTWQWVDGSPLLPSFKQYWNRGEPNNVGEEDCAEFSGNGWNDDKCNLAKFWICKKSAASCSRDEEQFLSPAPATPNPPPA
# [13] = tested on: CD244 (human)
# [14] = tested on: CD40 (human)
# [15] = tested on: CD9 (human)
# [16] = tested on: CDC123 (human)
# [17] = tested on: CDCA4 (human)
# [18] = tested on: CDK5 regulatory subunit-associated protein 3 (human)
# [19] = tested on: CDK6 (human)
# [20] = tested on: CDKN2D (human)
sequence,measurement,setting,value
GGGGACAGGGGTATGGGGAGGGG [G4-3 biotinylated (CtG)],binding signal,[1],-0.322 z-score
same,binding signal,[2],-0.349 z-score
same,binding signal,[3],-0.329 z-score
same,binding signal,[4],-0.33 z-score
same,binding signal,[5],-0.315 z-score
same,binding signal,[6],-0.335 z-score
same,binding signal,[7],-0.319 z-score
same,binding signal,[8],-0.308 z-score
same,binding signal,[9],-0.323 z-score
same,binding signal,[10],-0.326 z-score
same,binding signal,[11],-0.33 z-score and -0.336 z-score
same,binding signal,[12],-0.322 z-score
same,binding signal,[13],-0.318 z-score
same,binding signal,[14],-0.319 z-score
same,binding signal,[15],-0.331 z-score
same,binding signal,[16],-0.327 z-score
same,binding signal,[17],-0.332 z-score
same,binding signal,[18],-0.349 z-score
same,binding signal,[19],-0.321 z-score
same,binding signal,[20],-0.337 z-score

# 2 successive records from above:
sequence,measurement,setting,value
GGGGACAGGGGTATGGGGAGGGG [G4-3 biotinylated (CtG)],binding signal,[11],-0.33 z-score and -0.336 z-score
same,binding signal,[12],-0.322 z-score
